# Some of the results follow.
# Protein sequences, listed by entry. Tags and fused reporters are not part of them. Lines headed by an entry give the natural chain unless they say otherwise; changes in a name come on top.
# UniProt P36405: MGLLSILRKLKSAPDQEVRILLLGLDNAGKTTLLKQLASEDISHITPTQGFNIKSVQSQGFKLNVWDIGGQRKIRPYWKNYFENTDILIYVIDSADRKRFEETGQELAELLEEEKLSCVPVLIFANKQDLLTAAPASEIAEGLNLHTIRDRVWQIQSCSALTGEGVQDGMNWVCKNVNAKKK
# UniProt P17544: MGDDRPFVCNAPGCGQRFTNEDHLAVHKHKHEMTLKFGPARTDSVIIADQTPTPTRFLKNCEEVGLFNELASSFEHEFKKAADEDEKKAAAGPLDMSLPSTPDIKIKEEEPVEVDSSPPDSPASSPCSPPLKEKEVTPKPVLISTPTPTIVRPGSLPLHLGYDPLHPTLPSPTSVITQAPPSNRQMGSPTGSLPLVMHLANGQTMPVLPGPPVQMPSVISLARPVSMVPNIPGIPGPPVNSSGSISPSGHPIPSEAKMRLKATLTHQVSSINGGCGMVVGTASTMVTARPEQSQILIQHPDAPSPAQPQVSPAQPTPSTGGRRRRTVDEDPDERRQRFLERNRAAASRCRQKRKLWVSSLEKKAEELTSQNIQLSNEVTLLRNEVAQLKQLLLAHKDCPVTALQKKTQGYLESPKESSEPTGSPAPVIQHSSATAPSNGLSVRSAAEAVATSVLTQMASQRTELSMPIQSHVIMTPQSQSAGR
# UniProt Q9ULX6: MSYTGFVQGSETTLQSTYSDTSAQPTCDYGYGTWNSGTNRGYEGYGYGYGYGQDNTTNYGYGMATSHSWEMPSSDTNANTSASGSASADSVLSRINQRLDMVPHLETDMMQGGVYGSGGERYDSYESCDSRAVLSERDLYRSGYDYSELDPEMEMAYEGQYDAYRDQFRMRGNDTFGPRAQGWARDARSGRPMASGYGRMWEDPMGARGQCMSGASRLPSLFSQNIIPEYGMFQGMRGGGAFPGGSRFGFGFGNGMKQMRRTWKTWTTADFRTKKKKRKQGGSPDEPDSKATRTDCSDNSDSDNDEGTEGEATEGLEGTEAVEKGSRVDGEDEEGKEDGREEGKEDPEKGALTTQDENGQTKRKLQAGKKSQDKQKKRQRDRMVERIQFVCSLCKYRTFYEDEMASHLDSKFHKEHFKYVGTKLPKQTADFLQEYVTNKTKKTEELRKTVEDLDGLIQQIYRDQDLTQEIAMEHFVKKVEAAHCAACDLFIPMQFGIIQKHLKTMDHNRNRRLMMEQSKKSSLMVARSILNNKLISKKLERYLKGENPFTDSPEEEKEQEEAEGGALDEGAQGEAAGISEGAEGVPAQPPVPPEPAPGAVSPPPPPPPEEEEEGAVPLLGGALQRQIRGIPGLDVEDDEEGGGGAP
# UniProt Q8NBU5: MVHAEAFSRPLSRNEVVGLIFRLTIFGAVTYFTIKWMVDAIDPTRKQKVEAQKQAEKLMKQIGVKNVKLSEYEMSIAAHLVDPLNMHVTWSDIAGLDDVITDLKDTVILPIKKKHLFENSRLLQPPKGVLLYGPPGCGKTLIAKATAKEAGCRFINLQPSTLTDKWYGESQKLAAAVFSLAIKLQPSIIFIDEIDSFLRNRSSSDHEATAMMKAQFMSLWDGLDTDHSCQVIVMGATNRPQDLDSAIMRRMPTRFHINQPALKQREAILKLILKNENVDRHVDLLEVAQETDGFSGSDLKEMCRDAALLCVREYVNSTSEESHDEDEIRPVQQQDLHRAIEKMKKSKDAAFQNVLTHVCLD
# UniProt P18850: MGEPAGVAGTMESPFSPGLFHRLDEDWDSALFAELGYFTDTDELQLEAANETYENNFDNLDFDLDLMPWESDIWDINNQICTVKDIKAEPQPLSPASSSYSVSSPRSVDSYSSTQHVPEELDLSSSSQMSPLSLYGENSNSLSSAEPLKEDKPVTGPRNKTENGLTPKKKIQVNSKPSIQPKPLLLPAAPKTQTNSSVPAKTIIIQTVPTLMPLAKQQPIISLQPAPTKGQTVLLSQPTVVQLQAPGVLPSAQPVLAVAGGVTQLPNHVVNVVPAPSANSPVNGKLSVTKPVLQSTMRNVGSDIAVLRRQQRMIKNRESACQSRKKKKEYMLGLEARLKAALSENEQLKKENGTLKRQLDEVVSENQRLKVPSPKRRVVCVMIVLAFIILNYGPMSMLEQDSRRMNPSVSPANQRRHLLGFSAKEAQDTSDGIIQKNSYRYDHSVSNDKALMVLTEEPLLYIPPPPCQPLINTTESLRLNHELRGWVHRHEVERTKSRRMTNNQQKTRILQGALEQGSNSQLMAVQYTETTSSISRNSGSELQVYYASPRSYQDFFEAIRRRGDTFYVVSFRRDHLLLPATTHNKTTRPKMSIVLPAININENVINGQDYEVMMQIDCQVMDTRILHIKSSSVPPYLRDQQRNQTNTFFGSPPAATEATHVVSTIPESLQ
# UniProt Q9Y303: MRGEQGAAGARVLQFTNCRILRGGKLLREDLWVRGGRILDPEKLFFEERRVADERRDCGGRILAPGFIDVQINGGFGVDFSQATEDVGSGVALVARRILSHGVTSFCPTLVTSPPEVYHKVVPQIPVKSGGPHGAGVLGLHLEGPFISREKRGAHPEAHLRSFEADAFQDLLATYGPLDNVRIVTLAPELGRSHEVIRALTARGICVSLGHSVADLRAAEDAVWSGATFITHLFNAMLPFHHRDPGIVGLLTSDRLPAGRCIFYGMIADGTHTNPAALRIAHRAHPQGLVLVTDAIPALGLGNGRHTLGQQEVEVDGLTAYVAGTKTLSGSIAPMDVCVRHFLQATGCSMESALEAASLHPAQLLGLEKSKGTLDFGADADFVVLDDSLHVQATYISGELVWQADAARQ
# UniProt Q96F25: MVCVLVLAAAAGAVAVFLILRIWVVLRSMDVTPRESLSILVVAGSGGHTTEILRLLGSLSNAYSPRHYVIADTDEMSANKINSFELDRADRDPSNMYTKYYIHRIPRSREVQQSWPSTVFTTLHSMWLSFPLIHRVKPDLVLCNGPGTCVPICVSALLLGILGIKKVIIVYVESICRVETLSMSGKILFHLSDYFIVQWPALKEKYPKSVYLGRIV
# UniProt P08243: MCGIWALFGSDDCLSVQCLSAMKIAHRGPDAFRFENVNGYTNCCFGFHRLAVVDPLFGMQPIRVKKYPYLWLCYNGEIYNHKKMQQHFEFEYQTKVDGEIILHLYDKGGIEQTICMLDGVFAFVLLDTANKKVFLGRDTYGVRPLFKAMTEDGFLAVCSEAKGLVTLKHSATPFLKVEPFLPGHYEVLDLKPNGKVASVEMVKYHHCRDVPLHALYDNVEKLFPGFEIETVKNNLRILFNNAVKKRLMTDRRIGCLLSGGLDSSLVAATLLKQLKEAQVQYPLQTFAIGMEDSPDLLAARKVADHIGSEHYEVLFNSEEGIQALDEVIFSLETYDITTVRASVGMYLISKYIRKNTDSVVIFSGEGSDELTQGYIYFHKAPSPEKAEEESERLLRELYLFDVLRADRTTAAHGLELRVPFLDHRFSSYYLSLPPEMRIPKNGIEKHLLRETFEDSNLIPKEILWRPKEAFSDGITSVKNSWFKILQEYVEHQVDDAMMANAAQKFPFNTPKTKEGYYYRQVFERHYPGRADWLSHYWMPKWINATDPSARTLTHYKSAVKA
# UniProt P32121, whole entry: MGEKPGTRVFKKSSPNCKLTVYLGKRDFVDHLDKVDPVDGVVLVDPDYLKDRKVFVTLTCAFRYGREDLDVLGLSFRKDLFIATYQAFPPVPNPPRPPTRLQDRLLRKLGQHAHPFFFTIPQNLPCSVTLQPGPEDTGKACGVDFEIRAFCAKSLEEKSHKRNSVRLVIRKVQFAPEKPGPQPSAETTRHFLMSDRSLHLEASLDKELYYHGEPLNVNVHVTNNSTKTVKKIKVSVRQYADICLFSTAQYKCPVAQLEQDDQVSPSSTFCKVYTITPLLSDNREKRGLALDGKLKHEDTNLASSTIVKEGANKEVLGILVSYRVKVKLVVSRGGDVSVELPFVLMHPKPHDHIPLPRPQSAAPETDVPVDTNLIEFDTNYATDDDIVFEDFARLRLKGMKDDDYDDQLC
# UniProt P20292: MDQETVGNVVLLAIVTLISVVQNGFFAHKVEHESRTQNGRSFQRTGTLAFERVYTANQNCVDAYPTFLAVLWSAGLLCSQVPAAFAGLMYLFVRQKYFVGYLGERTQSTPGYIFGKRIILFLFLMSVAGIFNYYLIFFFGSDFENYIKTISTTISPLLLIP
# UniProt O14727: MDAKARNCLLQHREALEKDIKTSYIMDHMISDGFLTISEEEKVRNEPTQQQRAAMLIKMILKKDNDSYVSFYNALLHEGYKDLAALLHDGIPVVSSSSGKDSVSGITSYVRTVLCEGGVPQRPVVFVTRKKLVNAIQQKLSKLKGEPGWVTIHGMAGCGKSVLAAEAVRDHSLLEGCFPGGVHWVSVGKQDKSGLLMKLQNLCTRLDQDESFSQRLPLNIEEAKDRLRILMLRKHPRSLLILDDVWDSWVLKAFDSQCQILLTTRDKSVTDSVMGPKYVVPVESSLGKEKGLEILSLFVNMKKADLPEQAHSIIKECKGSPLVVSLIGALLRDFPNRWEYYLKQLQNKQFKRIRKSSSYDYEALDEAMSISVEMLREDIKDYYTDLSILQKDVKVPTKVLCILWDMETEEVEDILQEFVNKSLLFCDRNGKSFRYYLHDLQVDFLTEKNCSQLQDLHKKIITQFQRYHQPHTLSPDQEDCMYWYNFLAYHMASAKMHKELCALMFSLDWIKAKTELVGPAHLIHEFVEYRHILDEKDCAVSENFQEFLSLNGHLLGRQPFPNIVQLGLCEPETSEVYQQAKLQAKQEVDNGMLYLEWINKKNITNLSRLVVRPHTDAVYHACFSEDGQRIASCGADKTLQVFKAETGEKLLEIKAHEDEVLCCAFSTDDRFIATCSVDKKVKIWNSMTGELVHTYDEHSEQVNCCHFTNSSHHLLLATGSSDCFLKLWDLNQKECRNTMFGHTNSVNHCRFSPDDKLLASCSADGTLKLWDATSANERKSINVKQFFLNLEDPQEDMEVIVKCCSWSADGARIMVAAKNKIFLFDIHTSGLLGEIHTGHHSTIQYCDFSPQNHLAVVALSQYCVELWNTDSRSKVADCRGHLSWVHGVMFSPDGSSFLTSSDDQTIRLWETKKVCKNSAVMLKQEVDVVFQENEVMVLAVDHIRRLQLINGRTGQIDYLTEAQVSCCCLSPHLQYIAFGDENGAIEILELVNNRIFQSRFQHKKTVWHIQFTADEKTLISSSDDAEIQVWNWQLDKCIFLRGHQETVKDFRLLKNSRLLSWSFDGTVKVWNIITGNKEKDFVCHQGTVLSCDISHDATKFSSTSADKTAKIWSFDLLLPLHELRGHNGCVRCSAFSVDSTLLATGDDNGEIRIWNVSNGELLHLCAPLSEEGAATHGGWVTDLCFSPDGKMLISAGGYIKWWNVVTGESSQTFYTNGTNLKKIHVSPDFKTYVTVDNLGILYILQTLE
# UniProt Q6P6C2: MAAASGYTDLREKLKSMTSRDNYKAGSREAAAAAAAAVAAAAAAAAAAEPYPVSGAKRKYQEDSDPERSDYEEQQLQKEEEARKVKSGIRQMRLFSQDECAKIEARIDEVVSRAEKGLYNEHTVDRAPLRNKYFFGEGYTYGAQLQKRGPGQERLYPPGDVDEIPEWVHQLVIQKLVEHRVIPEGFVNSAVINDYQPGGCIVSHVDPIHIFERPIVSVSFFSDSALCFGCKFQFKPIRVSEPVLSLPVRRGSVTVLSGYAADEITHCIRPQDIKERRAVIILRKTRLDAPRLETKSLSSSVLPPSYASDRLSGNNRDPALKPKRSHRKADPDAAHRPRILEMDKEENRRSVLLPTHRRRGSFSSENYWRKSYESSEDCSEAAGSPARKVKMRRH
# UniProt P04424, whole entry: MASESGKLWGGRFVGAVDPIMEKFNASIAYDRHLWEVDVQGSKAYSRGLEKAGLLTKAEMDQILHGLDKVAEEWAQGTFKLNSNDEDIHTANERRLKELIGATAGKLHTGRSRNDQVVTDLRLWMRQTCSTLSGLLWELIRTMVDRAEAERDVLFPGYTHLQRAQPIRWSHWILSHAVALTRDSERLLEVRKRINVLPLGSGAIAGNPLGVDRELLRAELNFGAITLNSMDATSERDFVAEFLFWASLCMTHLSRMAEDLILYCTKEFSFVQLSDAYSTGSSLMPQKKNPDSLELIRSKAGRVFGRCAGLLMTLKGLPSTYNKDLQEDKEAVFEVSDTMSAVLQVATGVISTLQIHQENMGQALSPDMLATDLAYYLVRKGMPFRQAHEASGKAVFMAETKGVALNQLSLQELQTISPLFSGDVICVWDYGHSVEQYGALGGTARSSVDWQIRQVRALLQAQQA
# UniProt P55145: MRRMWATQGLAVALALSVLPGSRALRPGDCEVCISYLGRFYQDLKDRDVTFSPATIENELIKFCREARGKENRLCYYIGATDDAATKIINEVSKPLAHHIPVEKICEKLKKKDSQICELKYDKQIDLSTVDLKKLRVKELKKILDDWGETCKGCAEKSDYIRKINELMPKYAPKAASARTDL
# Compound: COc1ccc(Cn2ccc3cc(C)c(C(=O)NO)cc32)cc1
# Test: dose-dependent thermal stabilisation call (2D-TPP, DLPTP, 10% FDR) (binary (1 = stabilised)); higher = stabilised by the compound
# Conditions: system: HL-60 intact cells; concentration range 0.04-10 µM
# Procedure: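 2D thermal proteome profiling in intact HL-60 cells treated with BRD-3811 (0, 0.04, 0.29, 2, 10 uM) for 90 min at 37 C, then heated 3 min at one of 12 temperatures (42-63.9 C). Soluble protein was quantified by TMT10 MS. The value is the DLPTP call of the paper: dose-dependent thermal stabilisation over all temperatures at 10% FDR (F-test of a dose-response against a flat model); one experiment, one call per tested protein.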
row,Target,dose-dependent thermal stabilisation call
1,ARL3 (UniProt P36405),inactive: 0
2,ARSB (UniProt P15848),inactive: 0
3,ATF7 (UniProt P17544),inactive: 0
4,ARMC10 (UniProt Q8N2F6),inactive: 0
5,AKAP8L (UniProt Q9ULX6),inactive: 0
6,ATG4C (UniProt Q96DT6),inactive: 0
7,ARD1A (UniProt P41227),inactive: 0
8,ANKLE1 (UniProt Q8NAG6),inactive: 0
9,ATAD1 (UniProt Q8NBU5),inactive: 0
10,ATF6 (UniProt P18850),inactive: 0
11,ARFGAP1 (UniProt Q8N6T3),inactive: 0
12,ANP32A (UniProt P39687),inactive: 0
13,AMDHD2 (UniProt Q9Y303),inactive: 0
14,ALG14 (UniProt Q96F25),inactive: 0
15,AKR7A2 (UniProt O43488),inactive: 0
16,ARNT (UniProt P27540),inactive: 0
17,AKAP1 (UniProt Q92667),inactive: 0
18,ASNS (UniProt P08243),inactive: 0

# Another view of some results above:
row | Target | dose-dependent thermal stabilisation call
4 | ARMC10 (UniProt Q8N2F6) | inactive: 0
9 | ATAD1 (UniProt Q8NBU5) | inactive: 0
12 | ANP32A (UniProt P39687) | inactive: 0

# More records:

row,Target,dose-dependent thermal stabilisation call
1,ALG9 (UniProt Q9H6U8),inactive: 0
2,ARGLU1 (UniProt Q9NWB6),inactive: 0
3,AIFM1 (UniProt O95831),active: 1
4,ATG4B (UniProt Q9Y4P1),inactive: 0
5,ARRB2 (UniProt P32121),inactive: 0
6,ASCC1 (UniProt Q8N9N2),inactive: 0
7,AGRN (UniProt O00468),inactive: 0
8,ALOX5AP (UniProt P20292),active: 1
9,APBA3 (UniProt O96018),inactive: 0
10,ADSS (UniProt P30520),active: 1
11,APAF1 (UniProt O14727),inactive: 0
12,ARCN1 (UniProt P48444),inactive: 0
13,ALKBH5 (UniProt Q6P6C2),inactive: 0
14,ASL (UniProt P04424),inactive: 0
15,ARMET (UniProt P55145),inactive: 0
16,ARRB1 (UniProt P49407),inactive: 0
17,APEX1 (UniProt P27695),inactive: 0
18,ARFGAP3 (UniProt Q9NP61),inactive: 0

# From the supplement of paper PMC7666118
